Assay in all cases: co-IP; 293T cells co-transfected with a TRIB3-HA construct and ELF4-Myc-DDK, 48 h; RIPA lysate (500 ug protein); anti-HA antibody or isotype-matched IgG overnight at 4°C, Protein G Mag Sepharose beads; western blot with anti-Flag or anti-HA
Experiment [1] concerns the target HA-tagged full-length TRIB3 (tribbles pseudokinase 3, amino acids 1-358) (UniProt Q96RU7).
The target of experiment [2] is HA-tagged TRIB3 fragment, amino acids 72-315 (UniProt Q96RU7).
For experiment [3], the target named is HA-tagged TRIB3 fragment, amino acids 1-180 (UniProt Q96RU7).
In experiment [4] the target is HA-tagged TRIB3 fragment, amino acids 181-358 (UniProt Q96RU7).

Protein sequences, listed by entry. Tags and fused reporters are not part of them. Lines headed by an entry give the natural chain unless they say otherwise; changes in a name come on top. Chains listed by the source or under a name are the forms on record and can include a tag or linker. Residues count along the entry.
UniProt Q96RU7: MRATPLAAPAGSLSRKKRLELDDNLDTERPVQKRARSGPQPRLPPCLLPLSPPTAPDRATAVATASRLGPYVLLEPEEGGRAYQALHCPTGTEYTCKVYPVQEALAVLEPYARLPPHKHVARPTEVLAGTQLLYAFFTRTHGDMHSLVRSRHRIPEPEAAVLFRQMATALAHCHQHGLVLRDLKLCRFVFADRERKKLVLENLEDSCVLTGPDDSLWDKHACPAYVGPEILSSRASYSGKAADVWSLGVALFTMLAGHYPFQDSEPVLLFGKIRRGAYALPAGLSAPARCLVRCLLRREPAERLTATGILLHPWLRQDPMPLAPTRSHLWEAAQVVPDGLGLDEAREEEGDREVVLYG
HA-tagged TRIB3 fragment, amino acids 1-180: residues 1-180 of Q96RU7
HA-tagged TRIB3 fragment, amino acids 72-315: residues 72-315 of Q96RU7
HA-tagged TRIB3 fragment, amino acids 181-358: residues 181-358 of Q96RU7
UniProt Q99607: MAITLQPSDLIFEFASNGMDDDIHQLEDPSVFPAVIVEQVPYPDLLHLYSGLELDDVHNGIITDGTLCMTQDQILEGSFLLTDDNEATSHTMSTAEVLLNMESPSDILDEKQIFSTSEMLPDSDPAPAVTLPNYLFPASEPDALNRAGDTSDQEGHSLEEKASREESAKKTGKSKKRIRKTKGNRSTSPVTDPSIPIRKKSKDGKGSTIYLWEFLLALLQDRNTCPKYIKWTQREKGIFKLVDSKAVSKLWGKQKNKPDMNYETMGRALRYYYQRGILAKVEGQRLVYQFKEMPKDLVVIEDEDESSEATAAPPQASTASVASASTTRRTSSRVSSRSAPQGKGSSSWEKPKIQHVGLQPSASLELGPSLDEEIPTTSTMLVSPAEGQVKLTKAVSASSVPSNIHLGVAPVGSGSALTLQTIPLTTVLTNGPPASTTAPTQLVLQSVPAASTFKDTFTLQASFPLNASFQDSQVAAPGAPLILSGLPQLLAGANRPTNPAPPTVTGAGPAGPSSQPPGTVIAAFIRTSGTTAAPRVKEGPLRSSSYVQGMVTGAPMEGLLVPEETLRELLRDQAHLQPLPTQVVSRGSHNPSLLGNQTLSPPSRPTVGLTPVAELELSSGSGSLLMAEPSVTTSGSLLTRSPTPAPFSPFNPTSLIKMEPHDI

No constants are given. Whether binding was seen depends on the method and setting. Binding seen in cells or lysates may run through a third protein. Some entries that bind do so weakly or less than the wild type.

“full-length Myc-DDK-tagged ELF4 (E74-like ETS transcription factor 4) (from UniProt Q99607 1-663)”: the binding entry in experiment [1] is “binds”; in experiment [2], “no binding”; in experiment [3], “binds”; in experiment [4], “binds”.
